The results in this text go back to the supplement of paper PMC12578635.

± gives the standard deviation of the averaged measurements. The list shows a part of the results. Repeats are few or missing, and single values can be far off.

In this experiment the test system is RAW 264.7 macrophages infected with S. aureus JE2-lux. Put plainly: host macrophage viability (CellTiter-Fluor) relative to DMSO vehicle; higher = more viable host cells. The conditions noted are these: 10 µM; treatment time 4 h; gentamicin 50 µg/ml.
For the compound `CC(=O)c1cccc(N/C=C(\C#N)c2nc(-c3ccc(F)cc3)cs2)c1`, the host macrophage viability was determined as 128%.
To `Cc1nc(-c2csc(S(=O)(=O)Nc3ccc(C)c(Cl)c3)c2)no1` belongs 105%.
To `Cc1cccc(N2CCN(S(=O)(=O)c3cc(-c4nc(C)cs4)cs3)CC2C)c1` (stereo unspecified) belongs 81.4%.
For `COc1ccc(-n2ccn3c(CCC(=O)NCC4CCCO4)nnc3c2=O)cc1` (stereo unspecified), the host macrophage viability is 131%.
To `Cc1ccccc1-c1nnc2ccc(N3CCC(C(=O)NCCN(C)C)CC3)nn12` belongs 122%; to `CN1Cc2ccccc2CC1C(=O)N1CCC2(CC1)NC(=O)c1ccccc1O2` (stereo unspecified), 108%; to `O=C(O)CCC(=O)Nc1ccc(Cl)cc1-c1nc2ccccc2[nH]c1=O`, 114%.
To `COc1cc(/C=C(\C#N)c2nc(-c3ccc([N+](=O)[O-])cc3)cs2)ccc1OC(C)=O` belongs 99.6%; to `Cc1ccc(C)c(NC(=O)c2cnc(N(C)C)nc2C)c1`, 97.3%.
For `CC1=CC2=NC(=O)CC(C)(C(=O)NCc3n[nH]c4c3CCCC4)N2C=C1` (stereo unspecified), the host macrophage viability worked out at 118%.
The same measure for `O=C(O)Cc1c(-c2ccccc2)c2cc(Cl)ccc2[nH]c1=O`: 128%.
Regarding `CCOC(=O)c1sc(NC(=O)CCSc2ccccc2)cc1C`, the host macrophage viability came to 113 ± 14%.
The same measure for `Cc1oc(-c2ccno2)cc1S(=O)(=O)N1CCCCC1C` (stereo unspecified): 114%; for `Cc1cn2c(nc3c2c(=O)n(Cc2c(F)cccc2Cl)c(=O)n3C)o1`: 118%.
The same measure for `Cn1c(=O)n(CC(=O)N2CCCC2)c(=O)c2cc(S(=O)(=O)NCCC3=CCCCC3)ccc21`: 86%.
The same measure for `O=C(Nc1ccc(F)cc1F)c1ccc(SCCN2CCOCC2)nc1`: 110%; for `O=C(Cc1ccccc1)Nc1nc(-c2nc3ccccc3s2)cs1`: 112 ± 13%.
For `Cc1ccc2nc(-c3ccc(F)cc3)nc(SCC(=O)N3CCOCC3)c2c1`, the host macrophage viability came to 115%.
The same measure for `Cc1ccc(-c2nc(SCC(=O)NCc3ccco3)c3ccccc3n2)cc1`: 115%; for `COc1ccc(NC(=O)Nc2nc3cc(C)c(C)cc3s2)cc1`: 101%; for `O=C(NCc1ccc2c(c1)OCO2)c1ccc(Cl)c(S(=O)(=O)N2CCCC2)c1`: 130%.
To `Cc1cc(Nc2ccc(N3CCOCC3)cc2)n2nc(Cc3cccc(F)c3)nc2n1` belongs 114%.
The same measure for `CC(CCc1ccco1)NC(=O)Nc1cccc2ccccc12` (stereo unspecified): 106%.
Regarding `CSc1nc2ccc3nc(NC(=O)c4ccccc4C)sc3c2s1`, the host macrophage viability came to 117 ± 4.3%.
The same measure for `CCN1CCN(c2nc3ncn(CC(=O)Nc4ccc5c(c4)OCO5)c(=O)c3s2)CC1`: 111%; for `CCS(=O)(=O)c1ccc(CC(=O)Nc2nc3ccc(F)cc3s2)cc1`: 112%; for `Cc1c(NC(=O)c2cccc(Cl)c2)c(-n2cnnc2)nn1C`: 99.1%.
On to `CCOc1ccc(NC(=O)COc2cccc3c2CCN(Cc2ccc(F)cc2)C3=O)cc1`, for which the host macrophage viability came to 130%.
The same measure for `COc1cccc2c(=O)n(CC(=O)Nc3ccccc3C(F)(F)F)ccc12`: 112%.
The same measure for `COc1cc(C(C)=O)ccc1Oc1ncnc(N)c1[N+](=O)[O-]`: 125%; for `C=CCOc1ccccc1NC(=O)Cn1nc(C(F)(F)F)c2c1CCCC2`: 113%.
The same measure for `Cc1c(C(=O)Nc2cccc(Cl)c2)sc2nc3n(c(=O)c12)N=C(c1ccc(O)c(O)c1)CS3`: 109%; for `Cc1c(Cc2ccc3c(c2)OCO3)sc(NC(=O)c2nc3ccccc3s2)c1C#N`: 127%.
On to `O=C(CSc1nnc2ncccn12)Nc1cccc2ccccc12`, for which the host macrophage viability is 107%.
The same measure for `Cc1cc(-n2c(C)nc3ccccc3c2=O)ccc1NC(=O)c1cncc(Br)c1`: 111%; for `O=C(CC1CCCC1)NCCn1nc(-c2cccs2)oc1=O`: 120%; for `O=[N+]([O-])c1ccc(S(=O)(=O)N2CCN=C2SCc2cccnc2)cc1`: 116%.
The same measure for `COc1ccc(-c2cc3nc(C)cc(N4CCN(c5nc(C)cc(C)n5)CC4)n3n2)cc1OC`: 101%.
To `CCN(CC)S(=O)(=O)c1ccc(-c2nnc(SC(C)C(=O)OC)o2)cc1` (stereo unspecified) belongs 122%; to `CCOC(=O)c1nn(-c2ccccc2)c(=O)cc1NCc1ccccn1`, 121%.
As for `CC1(C)COc2ccc(NC(=O)COc3ccc(F)cc3)cc2NC1=O`, the host macrophage viability worked out at 117%.
The same measure for `NC(=O)c1c(NC(=O)c2cc3c(ccc4ccccc43)oc2=O)sc2c1CCCCC2`: 113 ± 6.7%; for `COc1ccc(CNC(=O)c2c(C)oc3c2C(=O)c2ccccc2C3=O)cc1`: 102%.
On to `O=c1oc2ccccc2cc1-c1csc(-c2cc3cccc([N+](=O)[O-])c3oc2=O)n1`, for which the host macrophage viability worked out at 127%.
To `CCOC(=O)c1ccc(Oc2ncnc(N)c2[N+](=O)[O-])cc1` belongs 116%; to `Cc1c(N2CCN(C(=O)Cc3ccc(F)cc3)CC2)c(=O)n(CC(C)C)c(=O)n1-c1ccccc1`, 91%.
To `COC(=O)c1ccc(C(=O)/N=c2/sc3cc(F)ccc3n2C)cc1` belongs 107 ± 5.6%; to `CCC1CCCCN1S(=O)(=O)c1ccc(C(=O)Nc2nc3c(s2)Cc2ccccc2-3)cc1` (stereo unspecified), 113%; to `O=C(CC(=O)N/N=C/c1ccc(O)cc1)N/N=C\c1ccc(O)cc1`, 108 ± 11%.
To `CCOC(=O)C(C)Oc1cccc2c(=O)n(CC(=O)Nc3ccc(F)cc3F)ccc12` (stereo unspecified) belongs 124%; to `Cc1ccc(-c2cc(=O)c3cc(NC(=O)c4ccccn4)ccc3o2)cc1`, 96%; to `O=C(CSCc1ccccc1)Nc1ccc2c3c(cccc13)CC2`, 96.6%.
As to `CCc1cc(=O)n(CC(=O)NCCC(C)C)c2c1c(C)nn2-c1ccc(C)cc1`, the host macrophage viability was found to be 115%.
To `CCOC(=O)c1nn(-c2ccc(F)cc2)c(=O)cc1NCc1cccnc1` belongs 116%.
To `Cn1c(N2CCN(C(=O)c3cc(-c4cccs4)n[nH]3)CC2)cc(=O)n(C)c1=O` belongs 114%; to `COc1ccccc1CCNC(=O)CSc1nc(=O)n(Cc2ccco2)c2c1CCC2`, 106%; to `CN(C(=O)CSc1nc(=O)n2ccccc2n1)c1ccccc1`, 117%.
To `CN1C(=O)c2cccc(NC(=O)c3sc4ccccc4c3Cl)c2C1=O` belongs 103%; to `O=C(CSC1=NS(=O)(=O)c2ccccc2N1)Nc1ccc(Br)cc1`, 130%.
As for `O=C(CCS(=O)(=O)c1ccccc1)Nc1cccc2c1C(=O)NC2=O`, the host macrophage viability is 110%.
To `CCn1cc(C(=O)N2CCc3ccccc3C2)c(=O)c2ccc(C)nc21` belongs 112%; to `COc1ccc(Br)cc1CNC(=O)COc1nc(C)nc2oc(C)c(C)c12`, 117%; to `O=C(Nc1ccc(S(=O)(=O)Nc2cncs2)cc1)c1ccc(-c2cccc(C(F)(F)F)c2)o1`, 118%.
To `CCOc1ccc(NC(=O)CSc2nncc(=O)[nH]2)cc1` belongs 109%.
To `N#Cc1ccccc1NC(=O)C(=O)NCc1ccccc1Cl` belongs 113%; to `CC1CCc2c(sc3nc(SCC(=O)c4cccs4)[nH]c(=O)c23)C1` (stereo unspecified), 114%.
